Record: PubChem BioAssay AID1259308 (NCATS, 2017)

- Purpose: 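Candidate targets for better recombinant protein yield in mammalian cells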 (primary screen)
- Cell system: human HEK293 embryonic kidney cells stably expressing firefly luciferase (HEK-CMV-Luc2-Hygro)
- Reagent: single siRNA against human genes, 0.8 pmol siRNA per well
- Time to read-out: 72 h
- Measurement: 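Reporter luminescence and viable-cell signal on separate replicate plates, given as percent of non-targeting control and median/MAD z-scores, plus per-cell luciferase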
- Direction: total luciferase, z-score and total luciferase, % of control: higher = more reporter protein produced; luciferase per cell, z-score: higher = more reporter output per viable cell; viable cells, % of control: higher = more viable cells
- Hit rule: 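An siRNA counts as active if its total luciferase robust z-score exceeds 3; genes with two or more such siRNAs out of three were retested with fresh siRNAs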
- Calls: active = raised luciferase; inactive = no rise
This is one part, drawn at random, of about 59,000 deposited reagents. Of all reagents, about 1,510 (2.6%) were called active. 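Calls use total luciferase alone and ignore viability, so some active siRNAs may act by altering cell number.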 Unmarked entries are inactive. The numbers tell different reagents against one gene apart.

total luciferase, z-score | total luciferase, % of control | luciferase per cell, z-score | viable cells, % of control | Gene | siRNA no.
-0.641 | 69.1 | 0.515 | 67.5 | NR0B2 | 1
0.446 | 90.7 | -0.422 | 113 | NR0B2 | 2
-1.37 | 54.7 | -2.15 | 108 | NR0B2 | 3
5.94 (active) | 200 | 3.6 | 86.5 | MSH2-OT1 | 1
0.302 | 87.9 | -0.306 | 106 | MSH2-OT1 | 2
2.78 | 137 | 1.22 | 111 | MSH2-OT1 | 3
-0.273 | 76.5 | -0.609 | 100 | DRAP1 | 1
-1.45 | 53.1 | -2.13 | 104 | DRAP1 | 2
-0.387 | 74.2 | -0.934 | 106 | DRAP1 | 3
0.162 | 85.1 | 0.116 | 92.2 | CRCP | 1
0.202 | 85.9 | -0.139 | 99.6 | CRCP | 2
-0.838 | 65.2 | -0.553 | 84.3 | CRCP | 3

Active calls, of those listed so far:
total luciferase, z-score | total luciferase, % of control | luciferase per cell, z-score | viable cells, % of control | Gene | siRNA no.
5.94 (active) | 200 | 3.6 | 86.5 | MSH2-OT1 | 1

The listing continues:
total luciferase, z-score | total luciferase, % of control | luciferase per cell, z-score | viable cells, % of control | Gene | siRNA no.
-0.109 | 79.7 | -0.605 | 104 | HRH1 | 1
1.27 | 107 | 1.73 | 75.8 | HRH1 | 2
-1.46 | 52.9 | -1.83 | 95.7 | HRH1 | 3
-0.415 | 73.6 | -0.259 | 88.1 | ZNF687 | 1
-1.56 | 50.8 | 0.0487 | 56.1 | ZNF687 | 2
-0.677 | 68.4 | -0.775 | 93.8 | ZNF687 | 3
-0.162 | 78.7 | -0.317 | 95.6 | STYX | 1
-0.414 | 73.7 | -0.605 | 96.5 | STYX | 2
-0.218 | 77.6 | -0.338 | 94.7 | STYX | 3
-0.684 | 68.3 | -1.03 | 100 | CA11 | 1
0.0618 | 83.1 | 0.913 | 73 | CA11 | 2
3.03 (active) | 142 | 1.92 | 95.9 | CA11 | 3
